## Percent effect of library compounds

Chains of the proteins cited; added tags and fusions are not shown. Residues count along the entry.
UniProt Q8IDJ8, 1-583: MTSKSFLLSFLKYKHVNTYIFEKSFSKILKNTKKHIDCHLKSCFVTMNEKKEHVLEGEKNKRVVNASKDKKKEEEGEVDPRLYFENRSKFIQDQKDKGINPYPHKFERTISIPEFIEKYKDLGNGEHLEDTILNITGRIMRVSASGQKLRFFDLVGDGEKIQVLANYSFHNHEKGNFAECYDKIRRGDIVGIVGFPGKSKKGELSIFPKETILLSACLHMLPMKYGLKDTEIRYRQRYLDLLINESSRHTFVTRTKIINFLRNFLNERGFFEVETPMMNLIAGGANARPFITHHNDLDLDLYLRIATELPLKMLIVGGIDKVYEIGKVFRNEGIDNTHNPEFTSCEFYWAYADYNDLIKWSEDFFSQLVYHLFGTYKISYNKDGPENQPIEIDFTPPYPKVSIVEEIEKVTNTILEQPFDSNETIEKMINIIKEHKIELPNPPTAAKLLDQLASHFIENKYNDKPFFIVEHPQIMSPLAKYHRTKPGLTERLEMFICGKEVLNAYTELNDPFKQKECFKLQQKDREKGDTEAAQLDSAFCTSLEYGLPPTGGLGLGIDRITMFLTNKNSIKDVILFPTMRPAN
UniProt I6X8D2, whole entry: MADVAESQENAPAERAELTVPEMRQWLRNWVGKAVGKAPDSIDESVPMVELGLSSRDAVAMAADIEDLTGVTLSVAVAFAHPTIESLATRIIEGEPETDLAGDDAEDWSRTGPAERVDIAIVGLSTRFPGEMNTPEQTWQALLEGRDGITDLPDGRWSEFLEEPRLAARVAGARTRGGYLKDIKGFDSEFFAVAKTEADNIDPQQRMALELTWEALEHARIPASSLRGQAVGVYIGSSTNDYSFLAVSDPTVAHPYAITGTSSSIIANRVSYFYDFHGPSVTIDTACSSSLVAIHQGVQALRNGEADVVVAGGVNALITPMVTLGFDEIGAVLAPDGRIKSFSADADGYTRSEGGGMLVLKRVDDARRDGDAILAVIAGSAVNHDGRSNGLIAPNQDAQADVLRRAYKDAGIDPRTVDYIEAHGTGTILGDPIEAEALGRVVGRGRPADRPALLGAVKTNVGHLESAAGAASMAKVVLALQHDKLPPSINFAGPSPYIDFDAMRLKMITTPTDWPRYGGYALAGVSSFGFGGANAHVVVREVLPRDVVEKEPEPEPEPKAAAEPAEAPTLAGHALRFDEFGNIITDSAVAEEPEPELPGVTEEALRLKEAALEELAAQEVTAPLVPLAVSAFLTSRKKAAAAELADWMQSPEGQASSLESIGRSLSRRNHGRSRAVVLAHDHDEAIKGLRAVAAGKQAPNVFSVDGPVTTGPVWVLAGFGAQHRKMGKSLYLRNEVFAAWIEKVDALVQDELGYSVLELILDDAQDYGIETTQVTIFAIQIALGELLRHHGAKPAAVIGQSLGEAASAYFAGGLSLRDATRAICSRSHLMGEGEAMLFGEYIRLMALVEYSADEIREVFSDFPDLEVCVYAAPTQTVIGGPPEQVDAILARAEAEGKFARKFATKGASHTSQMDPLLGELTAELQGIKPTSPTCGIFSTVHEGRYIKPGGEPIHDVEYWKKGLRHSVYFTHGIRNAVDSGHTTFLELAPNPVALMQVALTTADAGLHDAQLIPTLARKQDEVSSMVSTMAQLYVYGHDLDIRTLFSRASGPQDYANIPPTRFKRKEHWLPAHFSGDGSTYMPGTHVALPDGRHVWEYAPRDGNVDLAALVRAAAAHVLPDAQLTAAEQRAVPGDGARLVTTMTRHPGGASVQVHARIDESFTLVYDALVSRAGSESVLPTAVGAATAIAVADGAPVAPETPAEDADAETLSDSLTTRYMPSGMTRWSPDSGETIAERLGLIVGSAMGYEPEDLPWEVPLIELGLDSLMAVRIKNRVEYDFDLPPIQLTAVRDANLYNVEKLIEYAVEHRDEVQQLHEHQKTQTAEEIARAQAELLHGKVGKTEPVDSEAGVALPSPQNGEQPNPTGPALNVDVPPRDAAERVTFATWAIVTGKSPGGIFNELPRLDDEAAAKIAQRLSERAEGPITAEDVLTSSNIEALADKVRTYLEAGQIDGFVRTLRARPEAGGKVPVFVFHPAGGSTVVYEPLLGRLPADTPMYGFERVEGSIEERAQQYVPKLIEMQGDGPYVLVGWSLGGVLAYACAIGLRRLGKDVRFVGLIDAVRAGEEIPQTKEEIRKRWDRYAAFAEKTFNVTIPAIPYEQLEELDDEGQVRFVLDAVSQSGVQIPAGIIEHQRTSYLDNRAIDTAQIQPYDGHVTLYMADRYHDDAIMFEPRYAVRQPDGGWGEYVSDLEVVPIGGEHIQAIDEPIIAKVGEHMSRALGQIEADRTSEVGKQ
UniProt P9WNZ1, whole entry: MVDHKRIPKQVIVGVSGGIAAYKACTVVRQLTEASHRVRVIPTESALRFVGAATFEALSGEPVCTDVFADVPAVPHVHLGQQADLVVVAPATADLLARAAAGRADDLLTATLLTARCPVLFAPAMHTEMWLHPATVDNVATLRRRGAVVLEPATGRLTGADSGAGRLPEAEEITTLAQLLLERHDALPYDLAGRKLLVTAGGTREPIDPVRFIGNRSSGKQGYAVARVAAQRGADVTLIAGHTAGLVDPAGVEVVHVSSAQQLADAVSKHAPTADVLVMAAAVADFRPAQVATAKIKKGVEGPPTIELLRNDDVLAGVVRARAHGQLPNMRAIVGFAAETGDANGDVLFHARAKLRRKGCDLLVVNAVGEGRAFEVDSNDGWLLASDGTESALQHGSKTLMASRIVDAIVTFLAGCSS
UniProt Q4DA54, 1-478: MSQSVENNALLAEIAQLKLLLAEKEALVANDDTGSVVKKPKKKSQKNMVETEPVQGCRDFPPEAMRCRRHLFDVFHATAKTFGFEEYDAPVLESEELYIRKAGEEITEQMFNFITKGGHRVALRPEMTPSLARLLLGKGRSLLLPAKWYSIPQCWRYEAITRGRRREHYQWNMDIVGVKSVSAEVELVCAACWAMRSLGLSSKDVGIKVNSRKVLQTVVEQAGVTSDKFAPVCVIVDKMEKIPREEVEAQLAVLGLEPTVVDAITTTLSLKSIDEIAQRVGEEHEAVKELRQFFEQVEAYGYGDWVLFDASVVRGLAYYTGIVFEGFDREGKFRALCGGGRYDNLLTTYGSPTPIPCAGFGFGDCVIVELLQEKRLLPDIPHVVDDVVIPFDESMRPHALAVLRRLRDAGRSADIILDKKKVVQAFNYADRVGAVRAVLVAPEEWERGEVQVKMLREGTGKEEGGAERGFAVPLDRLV
UniProt P9WFT3, whole entry: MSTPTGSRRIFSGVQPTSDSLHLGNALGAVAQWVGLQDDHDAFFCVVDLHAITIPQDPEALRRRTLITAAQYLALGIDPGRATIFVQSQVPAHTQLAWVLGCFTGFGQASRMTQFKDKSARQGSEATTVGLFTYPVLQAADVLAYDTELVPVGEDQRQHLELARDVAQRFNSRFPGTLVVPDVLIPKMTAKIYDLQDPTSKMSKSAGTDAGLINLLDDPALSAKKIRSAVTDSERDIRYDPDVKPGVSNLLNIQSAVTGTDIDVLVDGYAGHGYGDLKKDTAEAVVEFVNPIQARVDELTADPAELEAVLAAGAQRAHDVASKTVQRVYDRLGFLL
UniProt P9WPC5, whole entry: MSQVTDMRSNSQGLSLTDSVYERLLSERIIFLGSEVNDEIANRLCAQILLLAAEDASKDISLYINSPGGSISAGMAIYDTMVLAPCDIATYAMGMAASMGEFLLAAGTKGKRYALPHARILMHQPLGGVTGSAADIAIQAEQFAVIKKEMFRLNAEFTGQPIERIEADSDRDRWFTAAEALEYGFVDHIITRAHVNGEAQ
UniProt P9WPC3, whole entry partner: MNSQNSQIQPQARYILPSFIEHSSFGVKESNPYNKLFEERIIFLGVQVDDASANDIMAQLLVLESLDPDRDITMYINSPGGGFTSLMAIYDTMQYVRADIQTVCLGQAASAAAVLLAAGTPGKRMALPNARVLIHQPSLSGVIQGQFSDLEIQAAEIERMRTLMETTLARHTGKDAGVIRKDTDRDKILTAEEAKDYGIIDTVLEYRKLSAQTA

Measurements from “University of Dundee, Small-Polar-MMV Screening Library” (2021), ChEMBL document CHEMBL3988442.

The filed quantity is “Percent Effect” (%).
How 0% and 100% were set is not recorded. Most values in the screen are low, and negative values occur.
Compounds were drawn at random from those tested, without regard to their results.
Two or more numbers in one place are separate tests of the same structure; such repeats can differ widely.

PfKRS1: 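Enzyme assay of the cytosolic lysyl-tRNA synthetase in 384-well plates, read by luminescence. Target: Lysine-tRNA ligase, Plasmodium falciparum 3D7 (UniProt Q8IDJ8). Concentration: 30 µM. Higher reads as stronger inhibition, judged from the few compounds that gave an IC50. Size under these conditions: about 69,000 compounds, about 49 of them at 50% or above in at least one test.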
Pks13 thioesterase: 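Enzyme assay of the thioesterase domain of polyketide synthase 13; the read-out is not stated. Target: Polyketide synthase Pks13, Mycobacterium tuberculosis (UniProt I6X8D2). Concentration: 30 µM. Higher reads as stronger inhibition (inferred from which compounds were picked for retests). Of about 67,000 compounds tested this way, about 300 (0.46%) reached 50% or more in at least one test.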
CoaBC: 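Enzyme assay of CoaBC with a phosphate dye (Biomol Green) read at 650 nm. Target: Coenzyme A biosynthesis protein CoaBC, Mycobacterium tuberculosis (UniProt P9WNZ1). Compounds at 30 µM. Direction is inferred from only a few compounds that gave an IC50; most scored high, so higher reads as stronger inhibition. Most strong results did not repeat in a second test. Size under these conditions: about 67,000 compounds, about 40 of them at 50% or above in at least one test.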
TcHisRS: 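Enzyme assay of histidyl-tRNA synthetase; the read-out is not stated. Target: Histidine-tRNA ligase, Trypanosoma cruzi CL Brener (UniProt Q4DA54). Compounds at 30 µM. The record gives no direction; compounds that gave an IC50 in retests scored well above the rest, so higher reads as stronger inhibition. About 69,000 compounds were tested under these conditions; 0.045% (about 31) showed 50% or more at least once.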
MtTrpRS: 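Enzyme assay of tryptophanyl-tRNA synthetase; the read-out is not stated. Target: Tryptophan-tRNA ligase, Mycobacterium tuberculosis (UniProt P9WFT3). Compounds at 10 µM. Higher most likely means stronger inhibition; the record gives no direction and few retests gave an IC50. Size under these conditions: about 65,000 compounds, about 64 of them at 50% or above in at least one test.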
ClpP1P2: 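ClpP1P2, Mycobacterium tuberculosis (UniProt P9WPC5 and UniProt P9WPC3). Protease assay of ClpP1P2, read by the AMC dye that it sets free. Concentration: 50 µM. Higher reads as stronger inhibition, judged from the few compounds that gave an IC50. Most other retested compounds had strongly negative values. Of about 69,000 compounds tested this way, about 10 (0.015%) reached 50% or more in at least one test.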

* Cc1ccc(CNC(=O)c2cc(C)n(C)n2)o1 | PfKRS1: 2.871%; Pks13 thioesterase: -11.28%; CoaBC: 2.079%; TcHisRS: 0.8696%; MtTrpRS: 3.109%; ClpP1P2: -7.325%
* CCCc1ncc(CNC2(c3ccc(Cl)cc3)CC2)cn1 | PfKRS1: 2.358%; Pks13 thioesterase: -11.72%; CoaBC: 4.38%; TcHisRS: 5.97%; MtTrpRS: -0.9855%; ClpP1P2: 11.74%
* CCCC(O)CN1CCC(=O)N(CCOC)Cc2cc3c(cc21)OCO3 (stereo unspecified) | PfKRS1: 7.07%; Pks13 thioesterase: -17.05%; CoaBC: -0.2421%; TcHisRS: 7.865%; ClpP1P2: 15.39%
* COc1ccc(-n2ncc(C(=O)NCC3COC(C)(C)O3)c2N)cc1 (stereo unspecified) | PfKRS1: 5.307%; Pks13 thioesterase: -2.43%; CoaBC: 9.555%; TcHisRS: 3.226%; MtTrpRS: -3.083%; ClpP1P2: 17.17%
* CC(C)Nc1ncnc2c1CCN(C(=O)CN(C)C)CC2 | PfKRS1: -10.38%; Pks13 thioesterase: -17.75%; CoaBC: -1.42%; TcHisRS: -5.882%; MtTrpRS: 0.5348%; ClpP1P2: 16.89%
* Cc1noc(C)c1CNS(=O)(=O)N(C)Cc1ccc(Cl)cc1 | PfKRS1: 2.885%; Pks13 thioesterase: -4.345%; CoaBC: -0.3984%; TcHisRS: 5.263%; MtTrpRS: -8.883%; ClpP1P2: -13.59%
* O=C1CCc2cc(S(=O)(=O)NC(=O)c3ccc4c(c3)CCO4)ccc2N1 | PfKRS1: 4.014%; Pks13 thioesterase: -6.439%; CoaBC: 3.902%; TcHisRS: -0.9804%; MtTrpRS: 0.9029%; ClpP1P2: -22.58%
* Cc1ccc(C(C)N(C)Cc2nc3c(cnn3C)c(=O)[nH]2)cc1 (stereo unspecified) | PfKRS1: 3.986%; Pks13 thioesterase: -5.486%; CoaBC: 13.49%; TcHisRS: 1.149%; MtTrpRS: -1.652%; ClpP1P2: 10.68%
* O=C(NCc1ccnc(OCC(F)(F)F)c1)NCC1CCCO1 (stereo unspecified) | PfKRS1: 1.61%; Pks13 thioesterase: -5.407%; CoaBC: 6.674%; TcHisRS: 11.46%; MtTrpRS: -3.431%; ClpP1P2: 3.744%
* Cc1noc(C)c1CN(C)CCc1nc(-c2cccc(Cl)c2)no1 | PfKRS1: 0.9117%; Pks13 thioesterase: -6.718%; CoaBC: 2.801%; TcHisRS: 6.548%; MtTrpRS: -1.575%; ClpP1P2: -10.43%
* CC(C)CN(Cc1nc2c(cnn2C)c(=O)[nH]1)C(C)C | PfKRS1: 3.587%; Pks13 thioesterase: -10.54%; CoaBC: 5.699%; TcHisRS: 0.7634%; MtTrpRS: -2.153%; ClpP1P2: 3.686%
* CN1CC(=O)N(c2ccccc2)CC12CCN(CC1CCOCC1)C2 (stereo unspecified) | PfKRS1: 5.428%; Pks13 thioesterase: -11.88%; CoaBC: 5.732%; TcHisRS: 5.6%; MtTrpRS: -5.444%; ClpP1P2: 5.993%
* O=C(NCc1ccco1)[C@H]1C[C@@H]2CCN(c3nncs3)C[C@H]2O1 | PfKRS1: 2.639%; Pks13 thioesterase: -4.385%; CoaBC: 11.86% and 22.72%; TcHisRS: 4.673%; MtTrpRS: 1.361%; ClpP1P2: -1.245%
* CCn1nc(C)cc1S(=O)(=O)N1CCC2(CC(=O)NC2=O)C1 (stereo unspecified) | PfKRS1: 2.327%; Pks13 thioesterase: -18.48%; CoaBC: 1.845%; TcHisRS: 0%; MtTrpRS: 1.774%; ClpP1P2: -17.53%
* COCc1nc(CN2C(=O)OC[C@@H]2C(C)C)no1 | PfKRS1: 5.987%; Pks13 thioesterase: -14.96%; CoaBC: 2.228%; TcHisRS: 7.229%; MtTrpRS: 1.314%; ClpP1P2: -12.12%

The last 2 entries again:

- CCn1nc(C)cc1S(=O)(=O)N1CCC2(CC(=O)NC2=O)C1 (stereo unspecified) : PfKRS1: 2.327%; Pks13 thioesterase: -18.48%; CoaBC: 1.845%; TcHisRS: 0%; MtTrpRS: 1.774%; ClpP1P2: -17.53%
- COCc1nc(CN2C(=O)OC[C@@H]2C(C)C)no1 : PfKRS1: 5.987%; Pks13 thioesterase: -14.96%; CoaBC: 2.228%; TcHisRS: 7.229%; MtTrpRS: 1.314%; ClpP1P2: -12.12%